According to PMC9103898:
These are yes or no findings as the source states them, for the method shown. Binding seen in cells or lysates may run through a third protein. Some results given as binding are weak or reduced against the parent protein; the word gives no strength. Sequences can lack the tags named with a protein.

Legend:
[1] = target: T1, Lsi1-YFP-N (rice (Dular cDNA)) (UniProt Q6Z2T3); test: split reporter; BiFC with eYFP halves (p2300-2YN, p2300-2YC) in Agrobacterium-infiltrated tobacco leaves, confocal microscopy after 48 h
T1 sequence: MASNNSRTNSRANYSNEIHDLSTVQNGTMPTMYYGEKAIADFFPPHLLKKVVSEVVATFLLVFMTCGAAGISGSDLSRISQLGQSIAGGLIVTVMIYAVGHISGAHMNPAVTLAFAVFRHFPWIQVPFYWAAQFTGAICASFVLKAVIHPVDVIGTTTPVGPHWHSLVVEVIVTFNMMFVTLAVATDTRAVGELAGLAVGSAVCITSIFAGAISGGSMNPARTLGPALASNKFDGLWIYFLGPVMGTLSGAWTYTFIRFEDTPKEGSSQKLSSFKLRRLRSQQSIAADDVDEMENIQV

GST::14-3-3f (rice) = target: T2, GST::14-3-3f (rice) (UniProt Q06967); test: pull-down; GST::14-3-3f bound to glutathione sepharose incubated with the His fusion protein at low temperature, rinsed with 1 x PBS, eluted with glutathione in Tris-HCl pH 8.0, Western blot with His and GST antibodies
T2 sequence: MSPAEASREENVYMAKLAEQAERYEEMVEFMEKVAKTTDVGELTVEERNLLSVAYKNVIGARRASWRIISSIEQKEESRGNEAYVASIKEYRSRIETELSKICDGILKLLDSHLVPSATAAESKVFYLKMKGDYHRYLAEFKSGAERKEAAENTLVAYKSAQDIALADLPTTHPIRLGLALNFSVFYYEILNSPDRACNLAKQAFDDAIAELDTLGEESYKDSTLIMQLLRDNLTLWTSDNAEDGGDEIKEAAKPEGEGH

Row | Binder | binding [1] | binding (GST::14-3-3f (rice))
1 | 14-3-3f-YFP-C (protein, UniProt Q06967 1-260) MSPAEASREENVYMAKLAEQAERYEEMVEFMEKVAKTTDVGELTVEERNLLSVAYKNVIGARRASWRIISSIEQKEESRGNEAYVASIKEYRSRIETELSKICDGILKLLDSHLVPSATAAESKVFYLKMKGDYHRYLAEFKSGAERKEAAENTLVAYKSAQDIALADLPTTHPIRLGLALNFSVFYYEILNSPDRACNLAKQAFDDAIAELDTLGEESYKDSTLIMQLLRDNLTLWTSDNAEDGGDEIKEAAKPEGEGH | binds | –
2 | His::Lsi1 (protein, UniProt Q6Z2T3 1-298) MASNNSRTNSRANYSNEIHDLSTVQNGTMPTMYYGEKAIADFFPPHLLKKVVSEVVATFLLVFMTCGAAGISGSDLSRISQLGQSIAGGLIVTVMIYAVGHISGAHMNPAVTLAFAVFRHFPWIQVPFYWAAQFTGAICASFVLKAVIHPVDVIGTTTPVGPHWHSLVVEVIVTFNMMFVTLAVATDTRAVGELAGLAVGSAVCITSIFAGAISGGSMNPARTLGPALASNKFDGLWIYFLGPVMGTLSGAWTYTFIRFEDTPKEGSSQKLSSFKLRRLRSQQSIAADDVDEMENIQV | – | binds
